# The list shows only some results of the screen, not a fair sample: it gathers tests that were run many times, whatever their T/C, doses with no T/C, and many T/C values between a quarter and a half above the control. Further doses and runs are listed elsewhere. T/C gives the treated animals as a percentage of the vehicle group. Some entries give survivors of the animals treated and no T/C: the source files T/C as zero there, which appears to mark a toxic dose or a test without result, not a measured value. Some doses without a T/C left all or most animals alive at the check, yet need not have been tolerated: survival well below the control is almost never listed, so the zero probably covers shortened survival too. Counts of survivors are from the toxicity check (mostly the fifth day) where no day follows; animals may have died later. Schedule codes are those of the source, read here as Q, the interval in days (D) or hours (H), X, the number of doses. Some entries were tested several times; the results are listed from low to high. Where survival is the endpoint, this PubChem deposit counts one and a half times the control or more as active, and values a quarter to a half above the control carry no call in these data; other NCI protocols may use other cut-offs.
# Tested on: P388 leukemia ip, CD2F1 mice, survival T/C
# Assay: NCI In Vivo Anticancer Drug Screen. Data for tumor model P388 Leukemia (intraperitoneal) in CD2F1 (CDF1) mice
# Details: T/C endpoint: median survival time, higher T/C = longer survival
# [1] = dose: 50.0 mg/kg/injection, schedule: Q01DX005 (ip), vehicle: Klucel (hydroxypropylcellulose) (HPC)
# [2] = dose: 100.0 mg/kg/injection, schedule: Q01DX005 (ip), vehicle: Klucel (hydroxypropylcellulose) (HPC)
# [3] = dose: 200.0 mg/kg/injection, schedule: Q01DX005 (ip), vehicle: Klucel (hydroxypropylcellulose) (HPC)
# [4] = dose: 200.0 mg/kg/injection, schedule: Q01DX009 (ip), vehicle: saline with Tween-80
# [5] = dose: 60.0 mg/kg/injection, schedule: Q01DX005 (ip), vehicle: saline with Tween-80
# [6] = dose: 12.5 mg/kg/injection, schedule: Q01DX005 (ip), vehicle: Klucel (hydroxypropylcellulose) (HPC)
# [7] = dose: 100.0 mg/kg/injection, schedule: Q01DX009 (ip), vehicle: saline with Tween-80
structure (smiles),measurement,setting,value
C=C1C(=O)O[C@@H]2[C@H](O)[C@@H](C)[C@@H]3C=CC(=O)[C@@]3(C)[C@@H](OC(=O)/C(C)=C/C)[C@H]12,T/C,"dose: 3.0 mg/kg/injection, schedule: Q01DX009 (ip), vehicle: saline + alcohol",125 % of control
same,survivor count,"dose: 17.5 mg/kg/injection, schedule: Q01DX009 (ip), vehicle: saline + alcohol",1 of 6
same,survivor count,"dose: 25.0 mg/kg/injection, schedule: Q01DX009 (ip), vehicle: saline + alcohol",2 of 4
same,survivor count,"dose: 35.0 mg/kg/injection, schedule: Q01DX009 (ip), vehicle: saline + alcohol",0 of 6
Cc1cc2c(=O)[nH]c(N)nc2[nH]1,survivor count,"dose: 100.0 mg/kg/injection, schedule: Q01DX009 (ip), vehicle: suspension in saline",1 of 6
same,survivor count,"dose: 200.0 mg/kg/injection, schedule: Q01DX009 (ip), vehicle: suspension in saline",0 of 6
[Cl][Sn]([CH2]C[CH2][Sn]([Cl])([c]1ccccc1)[c]1ccccc1)([c]1ccccc1)[c]1ccccc1,survivor count,[1],3 of 6
same,survivor count,[2],1 of 6
same,survivor count,[3],0 of 6
Cc1cc(=O)n2c(n1)Nc1ccc(Cl)cc1C2,survivor count,[4],6 of 6
[Cu+2].[O-]/N=C/c1cccc(O)c1[O-].[O-]/N=C/c1cccc(O)c1[O-],survivor count,[5],0 of 6
same,survivor count,"dose: 240.0 mg/kg/injection, schedule: Q01DX005 (ip), vehicle: saline with Tween-80",0 of 6
CCSC1C(=O)N(C)C(SCC)C(=O)N1C (centres undefined),survivor count,"dose: 100.0 mg/kg/injection, schedule: Q01DX009 (ip), vehicle: saline",5 of 6
same,survivor count,"dose: 200.0 mg/kg/injection, schedule: Q01DX009 (ip), vehicle: saline",6 of 6
CC(C)C(=O)NCCCCCCN1CCCCC1,survivor count,"dose: 200.0 mg/kg/injection, schedule: Q01DX005 (ip), vehicle: saline",0 of 5
CC1CCC(C(=O)C(Cl)C(Cl)C2CCCCC2)CC1 (centres undefined),survivor count,[3],6 of 6
O=S(=O)(O)c1ccc(/C2=c3\cc/c([n-]3)=C(\c3ccc(S(=O)(=O)O)cc3)c3ccc([n-]3)/C(c3ccc(S(=O)(=O)O)cc3)=c3/cc/c([n-]3)=C(\c3ccc(S(=O)(=O)O)cc3)c3ccc2[n-]3)cc1.[Zn],survivor count,"dose: 7.8 mg/kg/injection, schedule: Q01DX009 (ip), vehicle: saline with Tween-80",6 of 6
same,survivor count,"dose: 31.25 mg/kg/injection, schedule: Q01DX009 (ip), vehicle: saline with Tween-80",6 of 6
same,survivor count,"dose: 62.5 mg/kg/injection, schedule: Q01DX009 (ip), vehicle: saline with Tween-80",5 of 6 and 6 of 6
same,survivor count,"dose: 125.0 mg/kg/injection, schedule: Q01DX009 (ip), vehicle: saline with Tween-80",3 of 6
CC1(C)C(c2ccccc2)C1(Cl)Cl (centres undefined),survivor count,"dose: 400.0 mg/kg/injection, schedule: Q04DX002 (ip), vehicle: saline with Tween-80",6 of 6
O=C(Nc1cccc(Br)c1)Oc1ccc(Cl)c2cccnc12,survivor count,[5],5 of 6
same,survivor count,"dose: 120.0 mg/kg/injection, schedule: Q01DX005 (ip), vehicle: saline with Tween-80",6 of 6
CC(=O)Nc1ccc2c(Nc3ccc(NS(C)(=O)=O)cc3)c3ccccc3nc2c1,T/C,"dose: 0.29 mg/kg/injection, schedule: Q04DX003 (ip), vehicle: saline",149 % of control
same,T/C,"dose: 0.44 mg/kg/injection, schedule: Q04DX003 (ip), vehicle: saline",144 % of control
same,T/C,"dose: 0.66 mg/kg/injection, schedule: Q04DX003 (ip), vehicle: saline",146 % of control
CSc1nc(C)c(Br)c(N2CC2)n1,survivor count,"dose: 6.25 mg/kg/injection, schedule: Q01DX005 (ip), vehicle: Klucel (hydroxypropylcellulose) (HPC)",6 of 6
same,survivor count,[6],6 of 6
same,survivor count,[2],5 of 6
same,survivor count,[3],0 of 6
[CH3][Sn]([CH3])([n]1nnc2ccccc21)[n]1nnc2ccccc21,T/C,[3],125 % of control
OCC(O)C[S][Bi]([c]1ccccc1)[c]1ccccc1 (centres undefined),survivor count,"dose: 240.0 mg/kg/injection, schedule: Q01DX005 (ip), vehicle: Klucel (hydroxypropylcellulose) (HPC)",0 of 6
CN(C)C1C(O)C2Oc3c(cc(O)c4c3C(=O)c3cc5c(c(O)c3C4=O)C(OCC3COC(C)(C)O3)CC(C)(O)C5)C(C)(O2)C1O (centres undefined),survivor count,"dose: 32.0 mg/kg/injection, schedule: Q01DX009 (ip), vehicle: other",1 of 6
O=C(c1ccccc1)N(C(=O)c1ccccc1)c1ccccn1,survivor count,"dose: 50.0 mg/kg/injection, schedule: Q01DX009 (ip), vehicle: saline with Tween-80",6 of 6
Cc1c2oc(=O)cc(-c3ccccc3)c2cc2c(=O)ccoc12,survivor count,"dose: 50.0 mg/kg/injection, schedule: Q01DX005 (ip), vehicle: saline with Tween-80",6 of 6
CNC(=O)Oc1cccc(N=CN(C)C)c1,survivor count,"dose: 7.5 mg/kg/injection, schedule: Q01DX005 (ip), vehicle: saline",0 of 6
same,survivor count,"dose: 15.0 mg/kg/injection, schedule: Q01DX005 (ip), vehicle: saline",0 of 6
same,survivor count,"dose: 30.0 mg/kg/injection, schedule: Q01DX005 (ip), vehicle: saline",0 of 6
same,survivor count,"dose: 60.0 mg/kg/injection, schedule: Q01DX005 (ip), vehicle: saline",0 of 6
same,survivor count,"dose: 120.0 mg/kg/injection, schedule: Q01DX005 (ip), vehicle: saline",0 of 6
same,survivor count,"dose: 240.0 mg/kg/injection, schedule: Q01DX005 (ip), vehicle: saline",0 of 6
CN(C)c1ccc(Sc2ccc3nc(N)nc(N)c3c2)cc1,T/C,[7],128 % of control
C=CCN1CSC(=S)N(CC=C)C1,T/C,[7],129 % of control
same,survivor count,[7],3 of 6
same,survivor count,[4],1 of 6 and 2 of 6
COc1ccc2c(c1)CC[n+]1c-2ccc2c1CCC2=O,T/C,"dose: 100.0 mg/kg/injection, schedule: Q01DX005 (ip), vehicle: saline with Tween-80",126 % of control
same,T/C,"dose: 200.0 mg/kg/injection, schedule: Q01DX005 (ip), vehicle: saline with Tween-80",125 % of control
CC(=O)NC(Cn1cc(C(N)=O)ccc1=N)C(=O)O (centres undefined),T/C,[6],129 % of control
same,survivor count,"dose: 25.0 mg/kg/injection, schedule: Q01DX005 (ip), vehicle: Klucel (hydroxypropylcellulose) (HPC)",0 of 6 and 4 of 6
same,survivor count,[1],0 of 6
same,survivor count,[2],0 of 6
same,survivor count,[3],0 of 6
COc1cccc2c1C(=O)c1c(O)c3c(c(O)c1C2=O)C[C@@](O)(/C(C)=N\NC(=O)CCC(N)C(=O)O)C[C@@H]3OC1CC(N)C(O)C(C)O1 (some centres undefined) (tested in a mixture with another compound),T/C,"dose: 37.5 mg/kg/injection, schedule: Q04DX003 (ip), vehicle: water",149 % of control
same,T/C,"dose: 150.0 mg/kg/injection, schedule: Q04DX003 (ip), vehicle: water",140 % of control

# — PubChem BioAssay AID330 (DTP/NCI, 2004)
